The source of these data is patent publication US20090022717A1.

Results are given in words; binding and its absence hold for the method and conditions named. Some results given as binding are weak or reduced against the parent protein; the word gives no strength.

This experiment concerns the target monoclonal antibody 6E10. Briefly: peptide competition of antibody staining of CXCR7-expressing cells, FACS.

B1: SEQ ID NO 15 (peptide)
peptide: SWPCNSSDCIV
Regarding B1, the binding entry is “binds”.
